Paper PMC12408923
No constants are given. Whether binding was seen depends on the method and setting. In cells and extracts the contact can be indirect. Some results given as binding are weak or reduced against the parent protein; the word gives no strength.

Sequences of proteins named here, by UniProt entry; tags and fusion partners are left off.
UniProt Q9ULZ3: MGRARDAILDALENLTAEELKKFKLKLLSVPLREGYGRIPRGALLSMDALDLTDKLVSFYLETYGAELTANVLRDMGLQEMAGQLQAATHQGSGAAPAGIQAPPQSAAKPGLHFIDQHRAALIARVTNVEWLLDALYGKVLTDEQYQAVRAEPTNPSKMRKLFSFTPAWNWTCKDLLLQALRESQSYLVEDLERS
UniProt P29466: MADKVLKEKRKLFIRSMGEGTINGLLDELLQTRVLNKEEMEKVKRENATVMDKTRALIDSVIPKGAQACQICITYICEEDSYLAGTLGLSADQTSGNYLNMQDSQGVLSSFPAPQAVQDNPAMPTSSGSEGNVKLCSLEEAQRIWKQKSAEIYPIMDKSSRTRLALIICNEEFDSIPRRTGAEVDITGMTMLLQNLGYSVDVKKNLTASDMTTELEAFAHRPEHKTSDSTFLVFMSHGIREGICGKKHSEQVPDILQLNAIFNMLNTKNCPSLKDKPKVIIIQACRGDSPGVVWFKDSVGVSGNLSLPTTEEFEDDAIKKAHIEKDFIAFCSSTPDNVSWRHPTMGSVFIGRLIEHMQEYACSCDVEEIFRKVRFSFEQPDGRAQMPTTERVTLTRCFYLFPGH

T1: apoptosis-associated speck-like protein containing a caspase recruitment domain (ASC), endogenous in mouse BMDMs (mouse (endogenous in BMDMs)) (UniProt Q9EPB4)
T1 sequence: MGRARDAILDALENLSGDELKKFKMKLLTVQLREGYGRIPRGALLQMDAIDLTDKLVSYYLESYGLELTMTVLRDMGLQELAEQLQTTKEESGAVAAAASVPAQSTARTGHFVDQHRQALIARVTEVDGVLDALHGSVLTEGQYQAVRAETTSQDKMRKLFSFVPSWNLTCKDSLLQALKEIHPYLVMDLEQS


Tests used:
[1] = molecular target: ASC, endogenous in human peripheral blood mononuclear cell-derived macrophages (HMDMs) (human (endogenous in HMDMs)) (UniProt Q9ULZ3); test: co-IP; endogenous proteins of HMDMs primed with LPS (100 ng/mL, 4 h), ± DCL (3, 10, 30, 100 nM, 1 h), then ATP (5 mM, 45 min); lysate incubated with anti-ASC or anti-NLRP3 antibody or control IgG at 4°C overnight, protein A/G agarose beads; Western blotting
[2] = molecular target: T1, apoptosis-associated speck-like protein containing a caspase recruitment domain (ASC), endogenous in mouse BMDMs (mouse (endogenous in BMDMs)); test: co-IP; endogenous proteins of BMDMs primed with LPS (100 ng/mL, 4 h), ± DCL (3, 10, 30, 100 nM, 1 h), then ATP (5 mM, 45 min); lysate incubated with anti-ASC or anti-NLRP3 antibody or control IgG at 4°C overnight, protein A/G agarose beads; Western blotting

| Molecule | binding [1] | binding [2] |
| --- | --- | --- |
| pro-caspase-1, endogenous in human peripheral blood mononuclear cell-derived macrophages (HMDMs) (from UniProt P29466 1-404) (enzyme) | binds |  |
| pro-caspase-1, endogenous in mouse BMDMs (enzyme, UniProt P29452 1-402) MADKILRAKRKQFINSVSIGTINGLLDELLEKRVLNQEEMDKIKLANITAMDKARDLCDHVSKKGPQASQIFITYICNEDCYLAGILELQSAPSAETFVATEDSKGGHPSSSETKEEQNKEDGTFPGLTGTLKFCPLEKAQKLWKENPSEIYPIMNTTTRTRLALIICNTEFQHLSPRVGAQVDLREMKLLLEDLGYTVKVKENLTALEMVKEVKEFAACPEHKTSDSTFLVFMSHGIQEGICGTTYSNEVSDILKVDTIFQMMNTLKCPSLKDKPKVIIIQACRGEKQGVVLLKDSVRDSEEDFLTDAIFEDDGIKKAHIEKDFIAFCSSTPDNVSWRHPVRGSLFIESLIKHMKEYAWSCDLEDIFRKVRFSFEQPEFRLQMPTADRVTLTKRFYLFPGH |  | binds |
